Consider one substance from publication PMC12500454.

The chains behind the UniProt entries cited, without tags or fusion partners.
UniProt Q8BUN5: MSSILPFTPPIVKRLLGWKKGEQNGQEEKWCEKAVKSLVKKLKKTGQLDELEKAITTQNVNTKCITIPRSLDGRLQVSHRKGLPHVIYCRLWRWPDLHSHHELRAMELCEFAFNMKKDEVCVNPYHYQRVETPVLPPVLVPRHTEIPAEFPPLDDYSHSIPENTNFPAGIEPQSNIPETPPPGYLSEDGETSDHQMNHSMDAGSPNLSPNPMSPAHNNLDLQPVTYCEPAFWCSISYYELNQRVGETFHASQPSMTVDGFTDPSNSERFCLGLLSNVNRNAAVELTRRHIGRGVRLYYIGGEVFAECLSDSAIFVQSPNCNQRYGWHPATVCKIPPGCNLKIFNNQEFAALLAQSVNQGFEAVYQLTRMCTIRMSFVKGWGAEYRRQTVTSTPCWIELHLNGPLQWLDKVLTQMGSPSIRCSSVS
UniProt P58462: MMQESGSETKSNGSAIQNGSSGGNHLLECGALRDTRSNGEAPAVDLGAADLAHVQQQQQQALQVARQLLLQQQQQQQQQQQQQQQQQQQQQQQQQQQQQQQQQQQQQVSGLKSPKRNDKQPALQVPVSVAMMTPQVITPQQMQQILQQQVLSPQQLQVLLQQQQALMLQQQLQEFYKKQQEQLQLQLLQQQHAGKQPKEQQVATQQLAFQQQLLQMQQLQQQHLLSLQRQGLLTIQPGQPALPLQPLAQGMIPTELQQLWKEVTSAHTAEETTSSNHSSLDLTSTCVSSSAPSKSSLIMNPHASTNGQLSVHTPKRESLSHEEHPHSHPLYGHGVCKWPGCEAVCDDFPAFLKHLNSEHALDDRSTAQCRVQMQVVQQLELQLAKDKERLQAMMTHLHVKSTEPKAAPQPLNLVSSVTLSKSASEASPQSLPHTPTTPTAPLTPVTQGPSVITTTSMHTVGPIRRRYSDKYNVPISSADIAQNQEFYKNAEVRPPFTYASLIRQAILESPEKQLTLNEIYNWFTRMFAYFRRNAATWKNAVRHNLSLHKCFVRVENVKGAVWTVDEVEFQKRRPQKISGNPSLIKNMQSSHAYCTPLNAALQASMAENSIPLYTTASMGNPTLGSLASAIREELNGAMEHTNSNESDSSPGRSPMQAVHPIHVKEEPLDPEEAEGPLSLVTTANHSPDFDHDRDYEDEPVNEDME

No constants are given. Whether binding was seen depends on the method and setting. In cells and extracts the contact can be indirect. Some results given as binding are weak or reduced against the parent protein; the word gives no strength.

The target in the experiment is Smad3 (mouse (endogenous in primary mouse mesangial cells)) (UniProt Q8BUN5). Put plainly: co-IP; nuclear protein of primary mouse mesangial cells with or without TGFβ1 (6 h); immunoprecipitated with 1 µg Smad3 antibody overnight at 4 °C, protein G-agarose 2 h at 4 °C; immunoblot for FoxP1 or Stat5.

With “forkhead box transcription factor 1 (FoxP1) (from UniProt P58462 1-705)”, the binding result is listed as “binds”.
